# In PubChem BioAssay AID1671190 (National Center for Advancing Translational Sciences (NCATS), 2021):
# By UniProt entry, the sequences of proteins in these tests, tags left out. Where a name states a change or a piece, a line headed by the entry shows the natural chain unless it says otherwise.
# UniProt P18054: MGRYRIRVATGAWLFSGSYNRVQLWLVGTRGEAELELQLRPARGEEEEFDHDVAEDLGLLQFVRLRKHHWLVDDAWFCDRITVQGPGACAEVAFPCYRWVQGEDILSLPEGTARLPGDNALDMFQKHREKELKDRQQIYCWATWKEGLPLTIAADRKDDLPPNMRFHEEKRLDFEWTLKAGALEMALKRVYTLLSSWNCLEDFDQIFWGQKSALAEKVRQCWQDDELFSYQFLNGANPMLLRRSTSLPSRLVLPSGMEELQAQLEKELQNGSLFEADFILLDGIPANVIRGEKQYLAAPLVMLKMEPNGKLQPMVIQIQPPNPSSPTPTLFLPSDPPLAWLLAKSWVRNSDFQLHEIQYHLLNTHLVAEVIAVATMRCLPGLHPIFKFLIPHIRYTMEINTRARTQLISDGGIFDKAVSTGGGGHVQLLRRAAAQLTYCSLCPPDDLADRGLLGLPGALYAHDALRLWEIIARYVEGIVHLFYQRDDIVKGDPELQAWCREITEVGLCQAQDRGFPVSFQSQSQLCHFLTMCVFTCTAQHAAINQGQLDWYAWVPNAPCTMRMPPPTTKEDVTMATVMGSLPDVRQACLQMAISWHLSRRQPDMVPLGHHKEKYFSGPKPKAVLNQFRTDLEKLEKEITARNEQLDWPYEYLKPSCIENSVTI
# In all, about 580,000 compounds went through this assay and about 6,100 (1.1%) were called active. This list was built around the results that the source calls inconclusive (neither active nor inactive); the mix of calls is not that of the screen. Calls follow the shape of the dose curve; as a rule, active = well fitted inhibition curve with a large enough effect; inconclusive = small, poorly fitted or top-dose-only effect, or another doubt; inactive = no such curve, though single readings can be large or run the other way. Potencies of inconclusive entries are doubtful fits and often do not repeat.
# Molecular target: Polyunsaturated fatty acid lipoxygenase ALOX12 (Homo sapiens) (UniProt P18054)
# Assay: Primary qHTS assay for inhibitors of human arachidonate 12S-lipoxygenase (ALOX12): Round 2
# Settings: purified 12hLO, xylenol orange hydroperoxide absorbance; activity change, negative = inhibition: at 108 µM (top of the series) unless noted
# Summary of the method: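 Hydroperoxide product was detected by ferrous iron/xylenol orange as the 573 to 405 nm absorbance ratio. Arachidonic acid at 40 uM (final) was turned over for 30 min at room temperature by 150 nM human 12hLO, pH 7.0 Hepes buffer, after 15 min compound preincubation.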
# % is scaled to controls: 0 for no effect and ±100 for the full control effect; potency is read from the fitted curve at half-maximal effect.
Compound,"activity change, negative = inhibition",Potency
CC(NC(=O)CCc1ccccc1)c1ccc2c(c1)OCO2 (stereo not given),inactive: 1.11%,
CCCCNc1nc2c(S(=O)(=O)c3ccccc3)nnn2c2ccccc12,inactive: -1.87%,
COCc1nn(CC(=O)N2CCc3sccc3C2)c(=O)n1-c1ccccc1,,"inconclusive: 100 µM [inhibitor, partial curve, poor fit]"
COc1ccc(Nc2nc(C)cc(C)c2C#N)cc1OC,,"inconclusive: 5.01 µM [inhibitor, partial curve, poor fit]"
C(=N\N(c1ccccc1)c1ccccc1)/c1ccc(N2CCOCC2)s1,,"inconclusive: 39.8 µM [inhibitor, partial curve, poor fit]"
Cc1nc2cc(F)ccc2cc1C(=O)N1CCN(c2ccccc2F)CC1,inactive: -2.54%,
CCOc1cccc2cc(-c3csc(Nc4cccc(C(F)(F)F)c4)n3)c(=O)oc12,inactive: -18%,
COc1ccc(CCN=CC2=C(O)CCCC2=O)cc1OC,,"inconclusive: 126 µM [inhibitor, single point]"
CCCN1CCC(=O)N(CCN=[N+]=[N-])CC1,inactive: 3.4%,
Cc1nc2c(-c3ccc(F)cc3)c(C)nn2c(C)c1CCC(=O)NC(C)CCc1ccco1 (stereo not given),,"inconclusive: 56.2 µM [inhibitor, partial curve, poor fit]"
CN1CCN(Cc2c(O)ccc3cc(-c4ccc(Cl)cc4)c(=O)oc23)CC1,,"inconclusive: 2.51 µM [inhibitor, single point]"
CCNC(=S)Nc1ccc(C)c(Cl)c1,,"inconclusive: 50.1 µM [inhibitor, partial curve, poor fit]"
CCN(C(=O)Cn1c(=O)oc2cc(S(=O)(=O)N3CCCCC3)ccc21)c1ccccc1,,"inconclusive: 39.8 µM [inhibitor, partial curve, poor fit]"
O=c1[nH]cccc1-c1nc2cc(Cl)ccc2n1Cc1ccccc1,,"inconclusive: 31.6 µM [inhibitor, single point]"
COc1cnc(-c2ccccn2)nc1Sc1ccccc1Cl,,"inconclusive: 141 µM [inhibitor, partial curve, poor fit]"
CC(C)C[C@H]1CN([C@@H](Cc2ccc(O)cc2)CN2CCC[C@@H]2CN2C(=S)NC[C@@H]2Cc2ccccc2)C(=S)N1CC1CCCCCC1,,"inconclusive: 56.2 µM [inhibitor, partial curve, poor fit]"
CCCCNc1nc(-c2ccc(N(CC)S(C)(=O)=O)cc2)cs1,,"inconclusive: 35.5 µM [inhibitor, partial curve, poor fit]"
Cn1c(=O)c2c(nc(CN3CCN(C(=O)c4ccco4)CC3)n2Cc2ccc(Cl)cc2)n(C)c1=O,inactive: -8.05%,
O=C(NC(=S)N(Cc1ccccc1)Cc1ccccc1)c1ccccc1F,inactive: -0.841%,
CC(C)C(=O)NC(=S)Nc1ccccc1N1CCN(C(=O)c2ccc(Cl)cc2)CC1,,active: 44.7 µM
C=C(C)C1CCC2(COC(=O)CCC(=O)O)CC[C@]3(C)C(CCC4[C@@]5(C)CCC(OC(=O)CCC(=O)O)C(C)(C)C5CC[C@]43C)C12 (stereo not given in full),,"inconclusive: 31.6 µM [inhibitor, partial curve, poor fit]"
COC(=O)C1=C(CN2CCN(C)CC2)NC(=O)NC1c1ccc(C)cc1 (stereo not given),,"inconclusive: 126 µM [inhibitor, partial curve, poor fit]"

# Part of the list above, reformatted:
Compound | activity change, negative = inhibition | Potency
CC(NC(=O)CCc1ccccc1)c1ccc2c(c1)OCO2 (stereo not given) | inactive: 1.11% | 
CCCCNc1nc2c(S(=O)(=O)c3ccccc3)nnn2c2ccccc12 | inactive: -1.87% | 
COCc1nn(CC(=O)N2CCc3sccc3C2)c(=O)n1-c1ccccc1 |  | inconclusive: 100 µM [inhibitor, partial curve, poor fit]
COc1ccc(Nc2nc(C)cc(C)c2C#N)cc1OC |  | inconclusive: 5.01 µM [inhibitor, partial curve, poor fit]
C(=N\N(c1ccccc1)c1ccccc1)/c1ccc(N2CCOCC2)s1 |  | inconclusive: 39.8 µM [inhibitor, partial curve, poor fit]
Cc1nc2cc(F)ccc2cc1C(=O)N1CCN(c2ccccc2F)CC1 | inactive: -2.54% | 
CCOc1cccc2cc(-c3csc(Nc4cccc(C(F)(F)F)c4)n3)c(=O)oc12 | inactive: -18% | 
COc1ccc(CCN=CC2=C(O)CCCC2=O)cc1OC |  | inconclusive: 126 µM [inhibitor, single point]
CCCN1CCC(=O)N(CCN=[N+]=[N-])CC1 | inactive: 3.4% | 
Cc1nc2c(-c3ccc(F)cc3)c(C)nn2c(C)c1CCC(=O)NC(C)CCc1ccco1 (stereo not given) |  | inconclusive: 56.2 µM [inhibitor, partial curve, poor fit]
CN1CCN(Cc2c(O)ccc3cc(-c4ccc(Cl)cc4)c(=O)oc23)CC1 |  | inconclusive: 2.51 µM [inhibitor, single point]
CCNC(=S)Nc1ccc(C)c(Cl)c1 |  | inconclusive: 50.1 µM [inhibitor, partial curve, poor fit]
CCN(C(=O)Cn1c(=O)oc2cc(S(=O)(=O)N3CCCCC3)ccc21)c1ccccc1 |  | inconclusive: 39.8 µM [inhibitor, partial curve, poor fit]
O=c1[nH]cccc1-c1nc2cc(Cl)ccc2n1Cc1ccccc1 |  | inconclusive: 31.6 µM [inhibitor, single point]
COc1cnc(-c2ccccn2)nc1Sc1ccccc1Cl |  | inconclusive: 141 µM [inhibitor, partial curve, poor fit]
CC(C)C[C@H]1CN([C@@H](Cc2ccc(O)cc2)CN2CCC[C@@H]2CN2C(=S)NC[C@@H]2Cc2ccccc2)C(=S)N1CC1CCCCCC1 |  | inconclusive: 56.2 µM [inhibitor, partial curve, poor fit]
CCCCNc1nc(-c2ccc(N(CC)S(C)(=O)=O)cc2)cs1 |  | inconclusive: 35.5 µM [inhibitor, partial curve, poor fit]
Cn1c(=O)c2c(nc(CN3CCN(C(=O)c4ccco4)CC3)n2Cc2ccc(Cl)cc2)n(C)c1=O | inactive: -8.05% | 

# The results go on:

Compound,"activity change, negative = inhibition",Potency
O=C(Nc1ccc(-c2cnco2)cc1)c1ccccc1,,"inconclusive: 112 µM [inhibitor, single point]"
Cc1ccc(NC(=O)CN2C(=O)S/C(=C\c3cccn3-c3cccc(C(=O)O)c3)C2=O)cc1C,inactive: -19.4%,
CCCn1nc(C(=O)N2CCN(S(=O)(=O)c3ccc(C)cc3C)CC2)c2ccccc2c1=O,inactive: -20.6%,
CCC(CC)c1nnc(NC(=O)c2cc([N+](=O)[O-])ccc2N2CCOCC2)s1,,"inconclusive: 100 µM [inhibitor, single point]"
COCCCn1[nH]c2c3c(ccc2c1=O)C(=O)c1ccccc1C3=O,,"inconclusive: 35.5 µM [inhibitor, partial curve, poor fit]"
CN1CCN(C(=O)c2cc3c(s2)-c2ccccc2S(=O)(=O)C3)CC1,,"inconclusive: 100 µM [inhibitor, single point]"
O=C1N[C@@H]2CCN(C(=O)c3ccccc3)[C@@H]2C(=O)N1c1ccc(Oc2ccccc2)cc1,,"inconclusive: 25.1 µM [inhibitor, full curve, poor fit]"
O=C(NC1CCCC1)c1cc(Cl)nc2ccccc12,inactive: -12%,
O=S(=O)(Nc1ccc(C(O)(C(F)(F)F)C(F)(F)F)cc1)c1cccc2ccccc12,,active: 44.7 µM
COc1ccc(NC(=O)C2CCN(c3nc4ccccc4nc3OC)CC2)cc1OC,,"inconclusive: 56.2 µM [inhibitor, single point]"
Cc1ccc(NC(=O)Cn2c(=O)n(CC(=O)NCCc3ccccc3)c(=O)c3ccccc32)cc1C,,"inconclusive: 100 µM [inhibitor, single point]"
Cc1cccc(-c2noc(CCC(=O)NCc3ccco3)n2)c1,inactive: -14.2%,
O=C(Oc1c(CN2CCOCC2)cc(Cl)c2cccnc12)c1ccccc1Br,inactive: -1.35%,
CCOC(=O)C1=C(C)N(C)C(=O)NC1c1ccc2c(c1)OCO2 (stereo not given),,"inconclusive: 158 µM [inhibitor, partial curve, poor fit]"
O=[N+]([O-])c1ccc([C@H](O)[C@H](CO)N=Cc2ccccc2O)cc1,inactive: 12%,
COc1ccccc1-n1ccn2c(SCC(=O)N3CCN(c4ccccc4F)CC3)nnc2c1=O,inactive: -4.74%,
CN1CCc2c(sc(NC(=O)CS(=O)(=O)c3ccc(F)cc3)c2C(N)=O)C1,inactive: -21.8%,
O=C(CCCN1C(=O)/C(=C/c2ccccc2)SC1=S)Nc1ccccc1O,inactive: 19.8%,
C=CCC1(CO)CCCN(CC(=O)NC2CCCCC2)C1 (stereo not given),,"inconclusive: 14.1 µM [inhibitor, partial curve, poor fit]"
O=C1NC[C@H](CCCCN2C[C@H](Cc3ccccc3)N(CC3CCCCC3)C(=O)C2=O)N(CC2CCCCC2)C1=O,,"inconclusive: 79.4 µM [inhibitor, partial curve, poor fit]"
O=C(CCl)NC(Cc1c[nH]c2ccc(OCc3ccccc3)cc12)C(=O)O (stereo not given),,"inconclusive: 35.5 µM [inhibitor, partial curve]"
CC(C)CN(CC(C)C)C1=N/C(=C\c2ccco2)C(=O)N1c1ccccc1,,"inconclusive: 56.2 µM [inhibitor, partial curve, poor fit]"

Compound,"activity change, negative = inhibition",Potency
Cc1ccc(COC(=O)c2ccc(C(=O)c3ccccc3)cc2)cc1,,"inconclusive: 126 µM [inhibitor, single point]"
Cc1ccc(S(=O)(=O)c2cn(CC(=O)Nc3ccc(F)cc3)c3cc4c(cc3c2=O)OCO4)cc1,,"inconclusive: 22.4 µM [inhibitor, partial curve, poor fit]"
COc1ccc2nc(/C(C#N)=C\c3ccc(I)cc3)[nH]c2c1,inactive: -30.1%,
Cc1cc(Cl)c2c([N+](=O)[O-])c(O)ccc2n1,,"inconclusive: 22.4 µM [inhibitor, full curve, poor fit]"
COCC(=O)N1CC[C@H]2COC(=O)N2c2cc(F)ccc2C1,inactive: -18.4% [at 176 µM],
C=CCOc1cccc(C2/C(=C(/O)c3ccc(Cl)cc3)C(=O)C(=O)N2CCN2CCOCC2)c1 (stereo not given),inactive: -26.7%,
Cc1ccc(-n2nc(C)c3c2OC(N)=C(C#N)C3c2ccc(C)o2)cc1 (stereo not given),,"inconclusive: 178 µM [inhibitor, partial curve, poor fit]"
O=S(=O)(N[C@@H]1C[C@H](Cn2cc(-c3cccnc3)nn2)[C@@H](O)[C@H]1O)c1ccccc1,,active: 20 µM
C/C(=N\NC(=O)c1ccccc1)c1cc2cc([N+](=O)[O-])ccc2oc1=O,,"inconclusive: 50.1 µM [inhibitor, partial curve, poor fit]"
COc1ccc(-c2cn(C)c(=O)n3cc(COc4ccnn4C)nc23)c(C)c1,,"inconclusive: 56.2 µM [inhibitor, full curve]"
O=[N+]([O-])c1cc(C(F)(F)F)ccc1N1CCCC(O)C1 (stereo not given),,"inconclusive: 44.7 µM [inhibitor, partial curve, poor fit]"
CCc1ccc(S(=O)(=O)Nc2ccc(N3CCN(C)CC3)cc2)cc1,,"inconclusive: 50.1 µM [inhibitor, partial curve, poor fit]"
COCC(=O)NC1CCC12CCN(Cc1ccc(F)cc1F)CC2 (stereo not given),inactive: 14.7%,
COc1cccc(CNS(=O)(=O)c2ccc3c(c2)CC(C)N3C(=O)C2CCC2)c1 (stereo not given),inconclusive: -32.1% [inhibitor],
CN1CCC(NC(=O)C(C)(C)Oc2nn(CCOc3ccccc3)c3ccccc23)CC1,,"inconclusive: 28.2 µM [inhibitor, full curve, poor fit]"
CCOC(=O)c1ccc(N2C(=O)CC(SCC(N)C(=O)OCC)C2=O)cc1 (stereo not given),,"inconclusive: 35.5 µM [inhibitor, partial curve, poor fit]"
O=c1cc(-c2ccc(Br)cc2)[nH][nH]1,,"inconclusive: 79.4 µM [inhibitor, single point]"
CCOC(=O)C1CCN(c2c(NCCCN(CC)c3ccccc3)c(=O)c2=O)CC1,inactive: 20.6%,
COC(=O)[C@@]12CCCCN1[C@H](c1ccc(-c3cc(C(C)=O)cs3)c(OC)c1)[C@H]1C(=O)N(C)C(=O)[C@H]12,inactive: -0.527%,
CC(NC(=O)c1ccccc1)c1nnc(SCC(=O)NC2=NCCS2)n1C (stereo not given),,"inconclusive: 3.98 µM [inhibitor, full curve, poor fit]"
CN1CCN(C2CN(Cc3cn(Cc4ccc(C(F)(F)F)cc4)nn3)S(=O)(=O)C2)CC1 (stereo not given),,"inconclusive: 20 µM [inhibitor, full curve]"
